Measurements published in the supplement of paper PMC7858590.
± gives the standard deviation of the averaged measurements. In all, about 3,800 compounds were measured (“cell shape (eccentricity) Z-score vs DMSO control”: median about 1.1, lowest 2% from about -4.7 on). This is one part of the list. Starred links: 1 amine or outer side, 2 acyl side, 3 side chain; linkers in the order of their positions; H or OH if unused. Positions of bridges follow the written chain, without caps; N, C: chain ends. Residues, ends and D or L forms follow the SMILES beside them. X1 = CCC(C)CCCCCCCCC(CC(=O)[*:1])O[*:2]

Tested on: human monocyte-derived macrophages (M0)
Assay: cell shape (eccentricity) Z-score vs DMSO control; higher = more elongated, M2-like morphology
Conditions: 20 µM; 24 h; macrophage state: M0 (M-CSF)
Procedure: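 Primary human monocyte-derived macrophages (M-CSF differentiated, pooled from 4 donors, 5000 cells/well in 384-well plates) were treated with each compound at 20 uM for 24 h, then fixed and stained with phalloidin/DAPI and imaged on an Opera Phenix (6 fields, about 1000 cells/well). Cell eccentricity was measured with CellProfiler, and a Z-score (t-test) was computed against 4 DMSO control wells in the same row. Negative values mean round (M1-like) cells and positive values mean elongated (M2-like) cells; the paper's hit cutoffs are Z <= -4 (M1) and Z >= 6 (M2). Scale: negative = round, M1-like.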

Row | SMILES | cell shape (Z-score)
1 | Oc1cc(O)cc(/C=C/c2ccc(O)c(O)c2)c1 | -0.87
2 | COC1OC2c3cc4c(cc3CCN(C)C2c2ccc3c(c21)OCO3)OCO4 (stereo unspecified) | -2.08
3 | O=C(CCCN1CCC(O)(c2cccc(C(F)(F)F)c2)CC1)c1ccc(F)cc1 | -0.261
4 | C=C1C(=O)O[C@H]2C[C@H](C)[C@@H]3CC(=O)C(C)=C3C[C@H]12 | -1.93
5 | CC1CCC23CCC(O[C@@H]4O[C@H](CO)[C@@H](O)[C@H](O)[C@H]4O)C12C(C=O)=CC3(C)C (stereo partly specified) | -2.01
6 | O=C(OCc1ccccc1O[C@@H]1O[C@H](CO)[C@@H](O)[C@H](O)[C@H]1O)c1c(O)cccc1O[C@@H]1O[C@H](CO)[C@@H](O)[C@H](O)[C@H]1O | -1.14
7 | COc1ccc(C(=O)CC2(O)C(=O)Nc3c(Cl)ccc(Cl)c32)cc1 (stereo unspecified) | -7.6
8 | COc1c(O)cc2oc(-c3ccc(O[C@@H]4O[C@H](CO)[C@@H](O)[C@H](O)[C@H]4O)cc3)cc(=O)c2c1O | -0.343
9 | CCc1c2c(nc3ccc(O)cc13)-c1cc3c(c(=O)n1C2)COC(=O)C3(O)CC (stereo unspecified) | 4.55
10 | COc1cccc2c1C(=O)c1c(O)c3c(c(O)c1C2=O)C[C@@](O)(C(=O)CO)C[C@@H]3OC1C[C@H](N)[C@H](O)[C@H](C)O1 (stereo partly specified) | 4.22
11 | O=C(Nc1ccccc1)c1ccccc1O | 0.616
12 | CN(C)c1ccc(C(=O)NCCCCCCC(=O)NO)cc1 | 0.877
13 | Cc1cccc(C)c1NC(=O)c1ccccc1C(=O)O | 0.699
14 | COc1c2c(cc3oc(=O)ccc13)OC(C)(C)C=C2 | 0.688
15 | O=c1cc(N2CCOCC2)oc2c1ccc1ccccc12 | -0.822
16 | COc1cc2c(c(OC)c1OC)c(=O)c1ccccc1n2C | 4.49
17 | CC(C)=CCCC1(C)C=Cc2c(c(C)cc3c2[nH]c2cc(O)ccc23)O1 (stereo unspecified) | 1.6
18 | C[C@@H](CN1CCC(Cc2ccccc2)CC1)[C@@H](O)c1ccc(O)cc1 | 2.28
19 | CC(=O)NC(Cc1c[nH]c2ccccc12)C(=O)O (stereo unspecified) | 2.07
20 | CC(C)(Oc1ccc(Cl)cc1)C(=O)O | 1.93
21 | O=C(O)C=C1CCCc2ccccc2C1O (stereo unspecified) | -0.846
22 | COc1ccc2c3c1OC1CC(O)C=CC31CCN(C)C2 (stereo unspecified) | 1.58
23 | OCC(O)CN1CCN(c2ccccc2)CC1 (stereo unspecified) | 2.29

3 of the compounds above, in CSV form.
Row,SMILES,cell shape (Z-score)
5,CC1CCC23CCC(O[C@@H]4O[C@H](CO)[C@@H](O)[C@H](O)[C@H]4O)C12C(C=O)=CC3(C)C (stereo partly specified),-2.01
6,O=C(OCc1ccccc1O[C@@H]1O[C@H](CO)[C@@H](O)[C@H](O)[C@H]1O)c1c(O)cccc1O[C@@H]1O[C@H](CO)[C@@H](O)[C@H](O)[C@H]1O,-1.14
10,COc1cccc2c1C(=O)c1c(O)c3c(c(O)c1C2=O)C[C@@](O)(C(=O)CO)C[C@@H]3OC1C[C@H](N)[C@H](O)[C@H](C)O1 (stereo partly specified),4.22

The listing continues:

Row | SMILES | cell shape (Z-score)
24 | CC(NC(=O)c1ccccc1N)C(N)=O (stereo unspecified) | 4.09
25 | COc1ccccc1-c1cccc(-c2nc(C(=O)NCc3ccncc3)cc3c2[C@H](CCO)N([S@@](=O)C(C)(C)C)C3)c1 | 1.22
26 | CC1=C(SCCO)C(=O)c2ccccc2C1=O | -3.1
27 | C[C@@H]1OC(OC[C@H]2O[C@@H](Oc3cc(O)c4c(=O)cc(-c5ccc(O)c(O)c5)oc4c3)[C@H](O)[C@@H](O)[C@@H]2O)[C@H](O)[C@H](O)[C@H]1O (stereo partly specified) | -0.444
28 | CN1Cc2c(N)cccc2C(c2ccccc2)C1 (stereo unspecified) | 1.27
29 | NS(=O)(=O)c1cc2c(cc1Cl)NC(Cc1ccccc1)NS2(=O)=O (stereo unspecified) | -1.32
30 | COc1cc(C[C@@H]2COC(c3ccc(O[C@@H]4O[C@H](CO)[C@@H](O)[C@H](O)[C@H]4O)c(OC)c3)[C@@H]2CO)ccc1O[C@@H]1O[C@H](CO)[C@@H](O)[C@H](O)[C@H]1O (stereo partly specified) | 2.98
31 | CCC(C)CCCCCCCCC1CC(=O)NC(CCC(N)=O)C(=O)NC(CC(C)C)C(=O)NC(CC(C)C)C(=O)NC(C(C)C)C(=O)NC(CC(=O)O)C(=O)NC(CC(C)C)C(=O)NC(C(C)C)C(=O)O1 (stereo unspecified) (QLLVDLV; linker N-C via X1; configuration not given here) | 0.603
32 | CC(=O)O[C@@H]1CC[C@@]2(C)C(CC[C@@H](C)[C@]23Cc2c(O)cc4c(c2O3)CNC4=O)C1(C)C (stereo partly specified) | 1.98
33 | CC(C)=CC(O)C/C(C)=C/COc1ccc2ccc(=O)oc2c1 (stereo unspecified) | -0.0704
34 | Nc1c2ccccc2nc2ccccc12 | -1.93
35 | COc1cc(OC)c(C(=O)CCCCN2CCC3(CC2)NC(=O)NC3=O)cc1NS(=O)(=O)c1ccc(C(F)(F)F)cc1 | -0.437
36 | C[C@@H]1O[C@@H](Oc2cc(O)c3c(=O)c(-c4ccc(O)cc4)coc3c2)[C@H](O)[C@H](O)[C@H]1O | -1.74
37 | COC(=O)C[C@H]1C(C)(C)C2(O)OC34CC2C(=O)[C@]1(C)C3CC[C@]1(C)C4=CC(=O)O[C@H]1c1ccoc1 (stereo partly specified) | -1.12
38 | Cc1cnc(NC(=O)C2C(=O)c3ccccc3S(=O)(=O)N2C)s1 (stereo unspecified) | 3.07
39 | CCC1(C)OC(=O)N(C)C1=O (stereo unspecified) | -0.0962
40 | O=C1CCC(O)c2cccc(O)c21 (stereo unspecified) | 0.771
41 | O=C(OOC(=O)c1ccccc1)c1ccccc1 | 2.6
42 | C/C=C(\C)CC(/C=C(\C)C(O)C(C)/C=C(\C)C(O)C(C)/C=C/C(O)C/C=C/C(O)C(O)C(=O)O)C(=O)O (stereo unspecified) | 1.45 ± 2.2
43 | CC1(C)CC[C@]2(C(=O)O[C@@H]3O[C@H](CO)[C@@H](O)[C@H](O)[C@H]3O)CC[C@]3(C)C(=CCC4[C@@]5(C)CC[C@H](O[C@@H]6O[C@H](CO)[C@@H](O)[C@H](O[C@@H]7O[C@H](CO)[C@@H](O)[C@H](O)[C@H]7O)[C@H]6O[C@@H]6O[C@H](CO)[C@H](O)[C@H](O)[C@H]6O)C(C)(C)C5CC[C@]43C)[C@@H]2C1 (stereo partly specified) | -0.266
44 | OCC1OC(n2cnc3c(NC4CCCC4)nc(Cl)nc32)C(O)C1O (stereo unspecified) | 1.75
45 | CC1CN(CCCn2c3ccccc3c3ccccc32)CC(C)N1 (stereo unspecified) | -3.55
46 | CC(C)=CCc1c(O)ccc2c1OC(c1ccc(O)c(O)c1)CC2=O (stereo unspecified) | 3.36

Entries 40 to 41, quoted:
Row | SMILES | cell shape (Z-score)
40 | O=C1CCC(O)c2cccc(O)c21 (stereo unspecified) | 0.771
41 | O=C(OOC(=O)c1ccccc1)c1ccccc1 | 2.6

The list continues.

Row | SMILES | cell shape (Z-score)
47 | CC1(C)Oc2ccc(C#N)cc2[C@@H](N2CCCC2=O)[C@@H]1O | 3.26
48 | CCN(CC)CC1CCCCN1CC(=O)N1c2ccccc2C(=O)Nc2cccnc21 (stereo unspecified) | 2.24
49 | OCc1c[nH]c2ccccc12 | 0.211
50 | Cc1c(NC(=O)c2cccnc2)c(=O)n(-c2ccccc2)n1C | 7.96
51 | COc1cc2c(NC3CCN(C(C)C)CC3)nc(C3CCCCC3)nc2cc1OCCCN1CCCC1 | 0.827
52 | CCCCCCCCC(=O)NCc1cc(OC)c(O)cc1I | 0.93
53 | NC(=O)NN=Cc1ccc(Oc2ccc(F)cc2)cc1 | 1.46
54 | COc1cccc2c1C(c1ccc3c(c1O)C(=O)CC(C)C3O)OC2=O (stereo unspecified) | -0.261
55 | C=C(C)[C@@]12O[C@@H]1[C@@]1(C)C(=CC2=O)CC[C@@H](O)[C@@H]1C | -2.39
56 | C[C@@H]1CC2C3CCC4=CC(=O)C=C[C@]4(C)[C@@]3(F)[C@@H](O)C[C@]2(C)[C@@]1(O)C(=O)COP(=O)(O)O (stereo partly specified) | -2.21
57 | Cc1cccc(CCN2CCC(C(=O)c3ccc(NS(C)(=O)=O)cc3)CC2)n1 | 0.179
58 | CCC[C@@H]1C[C@@H](C(=O)NC(C(C)Cl)[C@H]2O[C@H](SC)[C@H](O)[C@@H](O)[C@H]2O)N(C)C1 (stereo partly specified) | 0.401
59 | CC(COc1ccccc1)NC(C)[C@H](O)c1ccc(O)cc1 (stereo partly specified) | 2.06
60 | COc1cc2nccc(Oc3ccc(NC(=O)NC4CC4)c(Cl)c3)c2cc1C(N)=O | 1.42 ± 1
61 | CCCCCCCCCC(=O)N[C@H](CN1CCOCC1)[C@H](O)c1ccccc1 | -2.01
62 | CC(=O)O[C@H]1C[C@@H](OC(C)=O)C(C)(C)C2CC(=O)[C@]3(C)C(CC[C@@]4(C)[C@H](C(=O)O)OC(=O)C5OC543)[C@]21C (stereo partly specified) | 1.06
63 | C=C1CC[C@@H]2C(C)(C)C[C@@H](O)C[C@@]2(C)[C@@H]1CC/C(=C/C(=O)OC)COC(C)=O | -1.45
64 | CC(=O)O[C@@H]1[C@@H](O)[C@H](C)O[C@@H](O[C@H]2[C@@H]3C=CO[C@@H](O[C@@H]4O[C@H](CO)[C@@H](O)[C@H](O)[C@H]4O)[C@@H]3[C@@]3(CO)O[C@@H]23)[C@@H]1OC(=O)/C=C/c1ccccc1 | 1.49
65 | CCN(CC)CCNC(=O)c1cc(S(C)(=O)=O)ccc1OC | 0.506
66 | CCN(CC)CC(=O)Nc1c(C)cccc1C | -0.534
67 | COc1ccc([C@@H]2CC(=O)c3c(O)cc(O)cc3O2)cc1O | 0.807
68 | COc1c(OC)c2occc2c2oc(=O)ccc12 | 5.35
69 | CON=C(C(=O)NC1C(=O)N2C(C(=O)O)=C(CSc3nc(=O)c(=O)[nH]n3C)CSC12)c1csc(N)n1 (stereo unspecified) | -0.265

Row | SMILES | cell shape (Z-score)
70 | C/C=C(/C(=C/C)c1ccc(O)cc1)c1ccc(O)cc1 | 4.71
71 | CC1(C)C(=O)C=C[C@@]2(C)C1CC(=O)[C@]1(C)C2CC[C@@]2(C)[C@H](c3ccoc3)OC(=O)[C@H]3O[C@]321 (stereo partly specified) | -1.42
72 | OC(CCN1CCCCC1)(c1ccccc1)C1CCCCC1 (stereo unspecified) | -1.27
73 | COC(=O)Nc1nc2cc(C(=O)c3cccs3)ccc2[nH]1 | -1.29
74 | CC(=O)CC(c1ccccc1)c1c(O)c2ccccc2oc1=O (stereo unspecified) | 3.52
75 | CCn1c(=O)[nH]c2ccccc21 | 0.543
76 | C=C1C(=O)O[C@H]2C1CC[C@@](C)(O)[C@@H]1C[C@H](O)C(=C)[C@@H]12 (stereo partly specified) | 0.528
77 | CC(C)(C)CC(C)(C)c1ccc(O)c(-n2nc3ccccc3n2)c1 | -0.381
78 | O=C1NS(=O)(=O)c2ccccc21 | 2.76
79 | Cc1c(-c2ccnc(Nc3ccc(N4CCNCC4)cc3)n2)sc(=O)n1C | 9.91
80 | COc1cc(-c2oc3cc(O)cc(O)c3c(=O)c2O)ccc1O | -0.173
81 | C=C(CCCCCCCC(=O)O)C(=O)OC | 1.12
82 | O=c1cc(-c2ccccc2)oc2cc(O)cc(O)c12 | 4.86
83 | C=C1CC[C@@H]2[C@](C)(CO)[C@H](O)CC[C@@]2(C)[C@@H]1C/C=C1/C(=O)OC[C@H]1O | -2.32
84 | c1ccc(-c2ccc(C(c3ccccc3)n3ccnc3)cc2)cc1 (stereo unspecified) | 3.34
85 | CC(=O)NS(=O)(=O)c1ccc(N)cc1 | -0.328
86 | COc1ccc(NS(=O)(=O)c2ccc(I)cc2)cc1N1CCN(C)CC1 | 3.22
87 | c1ccc(N2CCN(CCCOc3ccc4c(c3)OCO4)CC2)cc1 | 0.669
88 | CC(=O)CCCCn1c(=O)c2c(ncn2C)n(C)c1=O | 0.92
89 | CC(C)(C)c1nc(-c2cccc(NS(=O)(=O)c3c(F)cccc3F)c2F)c(-c2ccnc(N)n2)s1 | 5.93
90 | CCCc1ncc(C(=O)O)s1 | 0.911
91 | CC(=O)Nc1nc(C)c(-c2ccc(Cl)c(S(=O)(=O)NCCO)c2)s1 | 2.45
